Values of other authors in patent EP2090292A1, “Means and methods for controlling commensales” (B.R.A.I.N. Biotechnology Research and Information Network AG, priority 2008, dated 2009).
“Also recorded” adds a separate entry of the source. At least one compound was matched to its structure with a doubt left.

Test system: Gram-positive and Gram-negative bacteria
Conditions: prior art, Torres et al. (1998); biofilm not assayed

Structure (SMILES): CC(O)C1C=C(C2OC2C)C(=O)O1 (stereo not shown) [asperlactone, 5-(1-Hydroxyethyl)-3-(3-methyloxiranyl)-2(5H)-furanone]
- inhibitory activity against Gram-positive and Gram-negative bacteria: weak inhibitory activity; also recorded: weak to negligible activity
